# Library screening results

Amino acid sequences for entries named in this document (tags omitted).
UniProt E9BF75, entry or part of it: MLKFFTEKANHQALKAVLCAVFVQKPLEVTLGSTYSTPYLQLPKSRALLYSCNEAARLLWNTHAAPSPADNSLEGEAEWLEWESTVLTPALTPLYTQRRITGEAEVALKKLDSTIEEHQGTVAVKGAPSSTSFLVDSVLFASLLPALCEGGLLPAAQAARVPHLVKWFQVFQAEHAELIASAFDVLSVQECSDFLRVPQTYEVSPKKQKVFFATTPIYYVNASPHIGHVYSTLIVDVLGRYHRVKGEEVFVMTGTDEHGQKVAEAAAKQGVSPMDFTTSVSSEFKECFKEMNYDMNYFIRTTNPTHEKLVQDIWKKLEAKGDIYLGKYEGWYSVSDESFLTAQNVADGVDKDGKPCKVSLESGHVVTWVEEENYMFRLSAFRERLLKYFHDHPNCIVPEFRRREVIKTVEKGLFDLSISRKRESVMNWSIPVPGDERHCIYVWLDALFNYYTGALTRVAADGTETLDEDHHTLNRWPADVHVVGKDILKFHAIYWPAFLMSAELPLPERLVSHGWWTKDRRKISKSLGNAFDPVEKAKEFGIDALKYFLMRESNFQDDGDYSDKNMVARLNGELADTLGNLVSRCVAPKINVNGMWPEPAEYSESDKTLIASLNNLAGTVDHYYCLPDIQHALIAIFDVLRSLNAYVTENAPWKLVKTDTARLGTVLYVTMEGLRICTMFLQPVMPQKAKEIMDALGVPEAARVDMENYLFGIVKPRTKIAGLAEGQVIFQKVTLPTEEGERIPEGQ

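Primary screen of methionyl-tRNA synthetase; the read-out is not stated. Target: Methionyl-tRNA synthetase (putative), Leishmania donovani (UniProt E9BF75). The test concentration is not given. The values are filed as inhibition. About 68,000 compounds were tested under these conditions; 0.035% (about 24) showed 50% or more at least once.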

All values are in %.
The record does not define 0% and 100%; most values in the screen are far below 50% and negative numbers occur (in some assays of this library far below -100).
The compounds are a random part of those screened.

structure	inhibition
Cn1nc2c(c1NC(=O)c1ccc(Cl)s1)CCC2	3.672
Cc1cc(C)n(-c2nc(C(=O)NCCS(=O)(=O)N3CCCCC3)cs2)n1	11.75
CS(=O)(=O)N[C@@H]1CCN(Cc2cccnc2)[C@H]1Cc1cccnc1	6.667
Cc1ccc2cc(C(=O)NCCN3CCS(=O)(=O)CC3)c(C)nc2c1	4.545
CNC(=O)c1cc(C)n(-c2ccccc2)n1	15.28
O=c1c(NCCO)c(N2CCN(c3ccccc3)CC2)c1=O	16.91
CNC(=O)c1cccc(CC2COCCN(Cc3ccsc3)C2)n1 (configuration not stated)	20.25
Cn1cc(CN2C[C@H]3CCC[C@@H](CNc4nccn4C)[C@H]3C2)cn1	17.03
CNC(=O)[C@@H](c1ccccc1)N1CCC[C@H]1C(=O)NCc1ccccn1	11.54
COc1cc(C)sc1C(=O)NCCC(=O)N(C)Cc1ccccc1	9.511
c1cncc(CN2CCn3cc(CN4CCCCC4)nc3C2)c1	15.25
Cc1nc(N2CCCC2)nc2c1CCN(Cc1ccco1)CC2	8.787
Cc1cnc(N2Cc3cnn(Cc4ccc(F)cc4)c3C2)nc1N(C)C	19.55
COc1cc(CNCCc2cnn(C)c2)cc(OC)c1OC	11.05
CCN1CCN(C(=O)c2cnn(-c3ccccc3Cl)c2)CC1	9.804
CCO[C@H]1CO[C@@]2(CCCN(Cc3scnc3C)C2)C1	-9.816
CCOC(=O)CCNC(=O)c1nc(OCC)ccc1Cl	19.2
O=C(NCCCc1cccs1)N1CCCCC1CCO (configuration not stated)	12.32
CCCn1cnnc1CN(C)C(=O)C1CCC(=O)N(C2CCCC2)C1 (configuration not stated)	12.85
CS(=O)(=O)N1CC2(CCN(C(=O)c3ccncc3)CC2)c2ccccc21	12.89
CN(C)CCNc1cc(-c2ccc[nH]c2=O)c2cc[nH]c2n1	10.6
O=C(NCC(O)c1ccsc1)Nc1cccs1 (configuration not stated)	15.99
Cc1nn(C)c(N2CCOCC2)c1CNC1CCS(=O)(=O)C1 (configuration not stated)	18.12
CCOC(=O)c1coc(N2CCN(Cc3ccc(C)cc3)C(=O)C2)n1	8.982
CCS(=O)(=O)c1ncc(CN2CCOCC2)n1CCCc1ccccc1	-2.847
Cc1c(-c2nc(-c3cccc(CN4CCOCC4)c3)no2)cnn1C	11.56
Cc1ccoc1C(=O)N1CC[C@@H]2CN(C3CCOCC3)CCO[C@@H]2C1	15.84
CC1(c2ncc(CN(CC(=O)O)Cc3ccccc3)cn2)CCCCO1 (configuration not stated)	8.721
NC(=O)c1ccc(S(=O)(=O)NC2CCN(Cc3ccccc3)C2=O)cc1 (configuration not stated)	9.859
CC(CCNC(=O)N(C)CC1CCOCC1)N1CCCCC1 (configuration not stated)	6.906
COCCNC(=O)[C@H]1CC[C@@H]2[C@@H](CCN2c2ncc(F)cn2)O1	14.66
CCn1nc2c(cc1=O)CN(Cc1nc(C)c3ccccc3n1)CC2	23.71
CN(C)CC1CSCCCN1S(=O)(=O)Cc1ccc(C(F)(F)F)cc1 (configuration not stated)	11.51
CCS(=O)(=O)NCCNCc1cc(F)ccc1Br	-2.174
CC(=O)Nc1nc2c(s1)C1(CCN(C)CC1)Nc1ccccc1S2	3.641
CCCc1noc(CCC(=O)N2CCCC2Cn2cc(C)cn2)n1 (configuration not stated)	2.87
Cc1c[nH]nc1C1CCCCN1C(=O)Cn1cc(Cl)cn1 (configuration not stated)	10.84
Cc1nc2ccccc2nc1CN1CCCC1Cn1cccn1 (configuration not stated)	18.9
OC(COc1ccc2c(c1)OCO2)CN1CC(n2cccn2)C1 (configuration not stated)	10.94
CN(CCC1CCCCO1)c1nncc(-c2ccccc2)n1 (configuration not stated)	3.866
CNC(=O)C1(c2cnccn2)CCCN1C(=O)c1ccccc1OC (configuration not stated)	1.049
Cc1cccc(C(C(=O)N2CC(c3ccccn3)C2)N(C)C)c1 (configuration not stated)	13.77
Cc1cc(Cc2ccc(S(=O)(=O)N3CCCC3)cc2)c(=O)[nH]n1	15.16
Cc1cc(N(C)CCN(C)C2CCCC2)n2nc(C)cc2n1	13.14
COCCOCC(=O)Nc1cc(C)ccc1F	15.77
CN1N=C(C(=O)N2CCCC(n3ccnc3)C2)CCC1=O (configuration not stated)	5.215
CCc1ccc(C(=O)NCc2ccnc(N3CCN(C)CC3)c2)o1	18.42
CC(=O)NCc1cncc(C2CCCN2C2CCOCC2)n1 (configuration not stated)	10.25
CC(C)[C@H](N)C(=O)N1CCCC(C2=Nc3ccccc3S(=O)(=O)N2)C1 (some centres not stated)	12.21
CCS(=O)(=O)N1CCc2ccc(NC(=O)Nc3cccc(SC)c3)cc21	-0.9804
Cc1ncccc1OC1(C(=O)NCCc2ccccn2)CCNCC1	2.135
Cc1nsc(N2CCN(C(=O)Nc3cccc(C#N)c3)CC2)n1	11.55
COC(=O)c1cc(NCC(=O)NC(N)=O)cc(C(F)(F)F)c1	7.444
O=C(c1ccsc1)N1CCc2c(CN3CCCC3)n[nH]c2C1	13.36
COC[C@@]12CCO[C@@H]1CCN(C(=O)CCc1ccccc1Cl)C2	17.5
Oc1cc(-c2cccs2)nc(C2CCCN(CC3=CCCOC3)C2)n1 (configuration not stated)	9.494
O=C(N[C@@H]1CCNC[C@H]1O)c1cc(F)cc(Cl)c1	5.744
CCC(C)(CC(=O)OC)NC(=O)c1ccc2[nH]ccc2c1 (configuration not stated)	9.712
Cc1ccc(C(C)NC(=O)CSCC(N)=O)cc1 (configuration not stated)	6.077
CCn1nc(C)c(CN(C)S(=O)(=O)c2cnn(C)c2)c1C	16.15
COc1ccc2[nH]c3c(c2c1)CN(c1cc(NCCO)nc(N)n1)CC3	23.76

7 of the entries, repeated:

structure	inhibition
CC(C)[C@H](N)C(=O)N1CCCC(C2=Nc3ccccc3S(=O)(=O)N2)C1 (some centres not stated)	12.21
Cn1cc(CN2C[C@H]3CCC[C@@H](CNc4nccn4C)[C@H]3C2)cn1	17.03
CCn1nc2c(cc1=O)CN(Cc1nc(C)c3ccccc3n1)CC2	23.71
Cc1c(-c2nc(-c3cccc(CN4CCOCC4)c3)no2)cnn1C	11.56
CN(C)CC1CSCCCN1S(=O)(=O)Cc1ccc(C(F)(F)F)cc1 (configuration not stated)	11.51
CCCn1cnnc1CN(C)C(=O)C1CCC(=O)N(C2CCCC2)C1 (configuration not stated)	12.85
O=C(N[C@@H]1CCNC[C@H]1O)c1cc(F)cc(Cl)c1	5.744

From ChEMBL document CHEMBL3988442, “University of Dundee, Small-Polar-MMV Screening Library” (2021).